Results are given in words; binding and its absence hold for the method and conditions named. In cells and extracts the contact can be indirect. A yes stands for co-enrichment or nearness to the bait. Other partners may have been found. Sequences can lack the tags named with a protein.
Biological target: T1, GFP-ROT4(WT) (Arabidopsis thaliana) (UniProt Q7XXN8)
T1 sequence (chain, S-acylated in plant cells, C42 the predominant S-acylation site): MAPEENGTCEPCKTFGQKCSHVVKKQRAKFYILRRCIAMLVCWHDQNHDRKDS
Assay: affinity purification with mass spectrometry; lysates of ten-day-old GFP and GFP-ROT4 overexpressing seedlings, anti-GFP Agarose, 4 °C 2 h; IP buffer 50 mM Tris-HCl pH 7.4, 150 mM NaCl, 1 mM MgCl2, 10% glycerol, 0.5% Nonidet P-40; GFP vector plants as control

B1: BSK5 (BRASSINOSTEROID-… KINASE 5) (enzyme, UniProt Q9FIL1 1-489)
chain: MGPRCSKLSLCWWPTHLKSTHNEASDLDNGTDDLPSFTEFSFDQLRAATCGFSTDSIVSEHGVKAPNVVYKGRLEDDRWIAVKRFNRSAWPDTRQFLEEAKAVGQLRNERLANLIGFCCEGDERLLVAEFMPFETLSKHLFHWDSQPMKWSMRLRVALYLAQALEYCSSKGRALYHDLNAYRILFDQDGNPRLSCFGLMKNSRDGKSYSTNLAFTPPEYLRTGRVIPESVVYSFGTLLLDLLSGKHIPPSHALDLIRGKNFLMLMDSCLDGHFSNDDGTDLVRLASRCLQYEARERPNVKSLVSSLAPLQKETDIPSHVLMGIPHGAASPKETTSLTPLGDACSRHDLTAIHEILEKVGYKDDEGVANELSFQVWTDQIQETLNSKKQGDAAFKGKDFVTAVECYTQFIEDGTMVSPTVFARRCLCYLMSNMPQEALGDAMQAQVVSPEWPTAFYLQAAALFSLGMDKDACETLKDGTSLEAKKHNNRN
B1 was tested, and the binding was “binds”.

From paper PMC10897394
